The values that follow come from PMC6916587, “The roles of factor Va and protein S in formation of the activated protein C/protein S/factor Va inactivation complex” (Journal of Thrombosis and Haemostasis, 2019).

Protein sequences, listed by entry. Tags and fused reporters are not part of them. Lines headed by an entry give the natural chain unless they say otherwise; changes in a name come on top.
UniProt P07225: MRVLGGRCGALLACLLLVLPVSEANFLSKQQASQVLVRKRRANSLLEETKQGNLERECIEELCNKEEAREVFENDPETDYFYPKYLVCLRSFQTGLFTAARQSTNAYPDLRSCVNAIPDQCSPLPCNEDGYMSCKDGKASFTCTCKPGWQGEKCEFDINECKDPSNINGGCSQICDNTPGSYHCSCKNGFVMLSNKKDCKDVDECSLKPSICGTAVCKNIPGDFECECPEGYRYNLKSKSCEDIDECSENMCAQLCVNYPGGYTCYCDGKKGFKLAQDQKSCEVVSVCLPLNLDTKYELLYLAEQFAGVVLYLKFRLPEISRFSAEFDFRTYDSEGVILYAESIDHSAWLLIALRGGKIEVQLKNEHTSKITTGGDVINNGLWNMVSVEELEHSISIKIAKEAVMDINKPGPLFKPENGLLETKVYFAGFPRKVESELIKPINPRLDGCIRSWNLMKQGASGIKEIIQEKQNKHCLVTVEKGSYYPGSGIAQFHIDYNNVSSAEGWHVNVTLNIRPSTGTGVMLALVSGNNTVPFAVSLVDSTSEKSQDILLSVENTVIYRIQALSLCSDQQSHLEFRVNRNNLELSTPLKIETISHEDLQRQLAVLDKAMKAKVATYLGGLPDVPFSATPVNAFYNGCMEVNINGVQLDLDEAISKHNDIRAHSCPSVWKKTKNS
UniProt P12259: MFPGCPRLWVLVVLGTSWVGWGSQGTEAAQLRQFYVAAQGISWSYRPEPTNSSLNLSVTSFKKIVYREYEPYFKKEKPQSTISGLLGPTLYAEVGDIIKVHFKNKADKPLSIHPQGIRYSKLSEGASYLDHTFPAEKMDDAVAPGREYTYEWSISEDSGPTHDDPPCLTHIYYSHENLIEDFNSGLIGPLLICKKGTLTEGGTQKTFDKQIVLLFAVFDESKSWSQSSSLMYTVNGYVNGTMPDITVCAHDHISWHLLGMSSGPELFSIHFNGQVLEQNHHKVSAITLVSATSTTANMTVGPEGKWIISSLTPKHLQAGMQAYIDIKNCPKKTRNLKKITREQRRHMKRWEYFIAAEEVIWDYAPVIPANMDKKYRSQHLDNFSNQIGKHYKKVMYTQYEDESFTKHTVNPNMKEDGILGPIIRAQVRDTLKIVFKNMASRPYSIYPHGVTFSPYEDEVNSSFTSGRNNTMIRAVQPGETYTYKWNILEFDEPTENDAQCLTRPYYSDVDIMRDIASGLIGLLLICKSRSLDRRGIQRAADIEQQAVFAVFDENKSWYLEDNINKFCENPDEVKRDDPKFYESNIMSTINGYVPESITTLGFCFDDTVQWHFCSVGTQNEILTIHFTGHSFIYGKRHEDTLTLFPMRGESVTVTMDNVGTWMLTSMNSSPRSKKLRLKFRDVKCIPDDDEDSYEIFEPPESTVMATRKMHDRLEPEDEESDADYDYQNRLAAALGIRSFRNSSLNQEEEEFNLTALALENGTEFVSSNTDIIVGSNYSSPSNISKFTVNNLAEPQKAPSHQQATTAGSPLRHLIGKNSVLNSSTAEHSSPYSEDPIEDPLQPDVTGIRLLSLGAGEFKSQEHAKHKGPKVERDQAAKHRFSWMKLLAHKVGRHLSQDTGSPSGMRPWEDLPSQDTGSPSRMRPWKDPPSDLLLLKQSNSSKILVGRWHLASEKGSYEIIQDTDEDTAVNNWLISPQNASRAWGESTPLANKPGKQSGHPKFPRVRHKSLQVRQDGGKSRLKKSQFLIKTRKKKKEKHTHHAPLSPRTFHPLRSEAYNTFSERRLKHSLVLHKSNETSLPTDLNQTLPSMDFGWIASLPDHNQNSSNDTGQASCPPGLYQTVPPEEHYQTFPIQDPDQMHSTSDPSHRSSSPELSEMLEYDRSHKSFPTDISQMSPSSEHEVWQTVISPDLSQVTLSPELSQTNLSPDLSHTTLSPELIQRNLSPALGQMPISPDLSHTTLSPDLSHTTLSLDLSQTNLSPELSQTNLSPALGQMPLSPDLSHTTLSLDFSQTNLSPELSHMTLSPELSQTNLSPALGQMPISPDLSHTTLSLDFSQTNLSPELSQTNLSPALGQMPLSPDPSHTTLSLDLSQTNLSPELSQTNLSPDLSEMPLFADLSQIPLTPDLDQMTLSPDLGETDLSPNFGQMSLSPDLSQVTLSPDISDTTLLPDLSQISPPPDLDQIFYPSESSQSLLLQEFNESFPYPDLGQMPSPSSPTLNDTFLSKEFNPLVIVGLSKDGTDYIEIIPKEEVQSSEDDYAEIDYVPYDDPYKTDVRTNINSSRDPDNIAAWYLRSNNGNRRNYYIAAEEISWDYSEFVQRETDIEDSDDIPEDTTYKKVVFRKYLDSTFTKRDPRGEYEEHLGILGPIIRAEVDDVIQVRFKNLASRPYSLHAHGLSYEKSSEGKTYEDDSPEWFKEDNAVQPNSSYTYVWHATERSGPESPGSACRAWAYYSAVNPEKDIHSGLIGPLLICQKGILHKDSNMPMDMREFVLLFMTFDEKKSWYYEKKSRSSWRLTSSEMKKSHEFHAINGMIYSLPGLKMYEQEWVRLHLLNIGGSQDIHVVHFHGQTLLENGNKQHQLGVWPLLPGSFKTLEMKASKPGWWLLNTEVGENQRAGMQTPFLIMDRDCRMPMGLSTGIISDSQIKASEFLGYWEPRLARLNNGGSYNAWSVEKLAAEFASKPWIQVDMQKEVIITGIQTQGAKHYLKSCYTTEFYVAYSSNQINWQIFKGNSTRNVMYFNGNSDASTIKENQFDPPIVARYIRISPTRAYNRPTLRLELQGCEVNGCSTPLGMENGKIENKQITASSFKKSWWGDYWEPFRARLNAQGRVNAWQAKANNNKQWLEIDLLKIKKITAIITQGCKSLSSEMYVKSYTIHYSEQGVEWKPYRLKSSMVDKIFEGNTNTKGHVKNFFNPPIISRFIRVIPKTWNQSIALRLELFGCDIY

Test [1] has as its target protein S D95A (UniProt P07225). Put plainly: flow cytometry on phospholipid-coated magnetic beads; phospholipid-coated magnetic beads (125 μg/mL) pre-incubated with 100 nmol/L protein S and/or 0-75 nmol/L FVa at room temperature for 25 min, then 0-75 nmol/L APC-Fluor; MFI of the beads read 1 min (0-5 min) after APC; apparent; both purified. A general note: A flow cytometer gives signals particle by particle.

In test [2] the target is protein S E36A (UniProt P07225). The description is as above.

Results are given in words; binding and its absence hold for the method and conditions named.

For the substance “activated factor V (FVa), wild type (from UniProt P12259 29-737; P12259 1574-2224)”, the binding entry in test [1] is on record as “no binding (tested: 25 nmol/L FVa, 100 nmol/L protein S D95A)”; in test [2], “no binding (tested: 25 nmol/L FVa, 100 nmol/L protein S E36A)”.
